{
  "sequences": {"note": "Chains of the proteins cited; added tags and fusions are not shown. Lines headed by an entry give the natural chain unless they say otherwise; changes in a name come on top.", "UniProt Q9P6R2": "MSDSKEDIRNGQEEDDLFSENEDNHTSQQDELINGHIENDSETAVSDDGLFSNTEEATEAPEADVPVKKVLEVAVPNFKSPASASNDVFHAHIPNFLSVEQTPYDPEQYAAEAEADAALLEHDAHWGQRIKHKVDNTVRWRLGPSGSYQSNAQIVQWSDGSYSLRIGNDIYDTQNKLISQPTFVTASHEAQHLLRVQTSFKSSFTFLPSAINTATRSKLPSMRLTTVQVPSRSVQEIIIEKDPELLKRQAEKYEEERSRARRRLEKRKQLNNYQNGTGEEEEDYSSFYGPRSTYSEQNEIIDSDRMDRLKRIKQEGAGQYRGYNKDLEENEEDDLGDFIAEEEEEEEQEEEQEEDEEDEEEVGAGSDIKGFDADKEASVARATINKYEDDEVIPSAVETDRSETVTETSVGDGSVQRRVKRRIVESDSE"},
  "source": "paper PMC3873232",
  "molecules": {"B1": {"name": "Tpr1 (protein, UniProt O42668 1-1039)", "chain": "MEGFTLETHASRIIEVPLLGQEDQSVEIDCSSLPSDATELCEILVNEQAPREFWTKFAHEYYIRGLREQAILILKSGLETLKDSESLCILNANIAAIYLSMAREAMLKKDTDLRDEQLRNVRTYLEAANNIDSKSEINVLLHGIYRILLNPTDKESLENAARCFDFVLQKSGGNILGFLGKARILYAKGNYRSALKLYQRALVSNPQFKPDPRIGIGLCFWNLDMKTDALSAWTRVQQLDPKNTVVDTYIGLYYYDLAFQNVNNDSFVQNYGKALQHIQRAFKTRNNDPVASSILERYVYSKKNYEGCIKLAENVIQNSFSSSLIADGYYWMGRAYHQMGNNEKAMASYQKAKAADDRHLLSSVGIGQIQILQNDLTSAKLTFERIAEQNQSCFEALVVLGCLHASDSKPDLTKARMLLDRAFNLVGSSKLPRVVDSDLYITQARLWEKEDTKKSLGFLTRALDFLESAHMSVGPELLNNIAVLQYHLGLIPEAHGNIIKAKSVLPDANPELSLLLDYNLARCEEELGNTSVASEAYVSILEKHPSFIDARIRKCLLQLSNPNEETFKEIRHIMNADSQNLEVRAFFGWYLSKQKRRPVEDPEVRHCSQTLRHWHDDIYSLVQLGNAYMRQAREFRVHNDREKLKRQKLYIKAIQSYDQAIKFDPKNAHAAQGIAIILAQNRQFSKALLILSKVREAIKDATTLINIGNCLAELKQFSRAIEVFETVYSSTGESDTYGVLSCLGRVWLQRGRESKNVDYLKESVRYATLALEKNPENPSLLFNVAFVQFQLCELIRQKPENSRTVEDLNFAMQQLDASIETFTKLVSVEHPPYSPTSIEQRAKMAKNTTKRQLERAIQAQIEYEKSVAAKLEDARIQREKEKARRLAEEEALLKEKQERERQLQEERQKMQEEVLEWRKSQQKASEDDMSLSDDEEKQSGKKKKKDRKKRKSKSKQESSDSGVSEDDEIPLSDARNKTKKRRVNRRVISEEYTFDQDSDAEGNQEEEVSRTIEEKQDNDITDNQDDNKELNLFSEEDEE"}, "B2": {"name": "Cdc73 (protein, UniProt Q9UUE7 1-371)", "chain": "MDSLLLLKKSIAEKKDVKLLASSEATSKVEKIEDAQYILFDENTSPILIDEPTKFIKLENDSHFSLRSVYFAWLLRDTSIAEYIQQCSELGIQNLTFLERTDLISWLEGSSDSEHIIGLEKPKPEGSTDAATSMDVDLHKKSEEVNWLFENTRTVSNHNSVLHGIKPIDFISLRKDVLDYIHANKATASAHADEQERPAKKRNRDPIILLSPSASSLLTMHNIKKFLEEGIFVPPAEAAHAAGGGRGPELIALSHKSSNSKFGTMRFIIVEGTEKFKPDYWDRVVCVFTTGQAWQFRDYKWSEPHQLFHHVKGFLVQYVGDPPHPATHDWNVEGIFVERLRRHTDREVVSQLWDKLERWMENRWPLWNGRR"}},
  "key": {"Tpr1-TAP (S. pombe) [1]": {"molecular_target": "T1, Tpr1-TAP (S. pombe) (UniProt O42668)", "T1 sequence": "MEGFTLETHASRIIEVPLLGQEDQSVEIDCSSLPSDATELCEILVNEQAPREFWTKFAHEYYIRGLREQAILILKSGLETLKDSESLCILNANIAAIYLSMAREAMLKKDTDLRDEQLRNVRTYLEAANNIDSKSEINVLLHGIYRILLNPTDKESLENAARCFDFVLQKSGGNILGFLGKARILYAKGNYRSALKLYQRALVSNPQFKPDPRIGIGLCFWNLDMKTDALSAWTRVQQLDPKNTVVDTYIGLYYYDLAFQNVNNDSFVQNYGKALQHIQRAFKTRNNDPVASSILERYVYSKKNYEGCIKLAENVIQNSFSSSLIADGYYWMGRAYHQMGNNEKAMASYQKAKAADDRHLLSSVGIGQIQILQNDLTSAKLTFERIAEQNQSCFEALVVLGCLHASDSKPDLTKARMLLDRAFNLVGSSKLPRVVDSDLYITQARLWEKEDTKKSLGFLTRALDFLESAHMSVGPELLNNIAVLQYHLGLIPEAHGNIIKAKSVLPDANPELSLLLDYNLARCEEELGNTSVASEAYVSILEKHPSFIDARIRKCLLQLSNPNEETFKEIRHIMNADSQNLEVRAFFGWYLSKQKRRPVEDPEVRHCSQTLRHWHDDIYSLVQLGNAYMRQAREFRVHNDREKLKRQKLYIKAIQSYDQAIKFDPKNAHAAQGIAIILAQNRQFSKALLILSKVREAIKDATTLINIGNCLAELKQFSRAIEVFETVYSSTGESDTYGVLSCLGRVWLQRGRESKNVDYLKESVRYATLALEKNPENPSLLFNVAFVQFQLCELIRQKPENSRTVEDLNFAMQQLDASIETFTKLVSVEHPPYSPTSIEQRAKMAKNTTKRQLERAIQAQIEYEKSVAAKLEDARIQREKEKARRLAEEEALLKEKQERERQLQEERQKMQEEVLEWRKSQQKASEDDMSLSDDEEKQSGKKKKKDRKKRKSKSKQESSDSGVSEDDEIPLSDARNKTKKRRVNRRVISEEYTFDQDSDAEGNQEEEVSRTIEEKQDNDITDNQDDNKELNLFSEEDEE", "assay": "affinity purification with mass spectrometry; tandem affinity purification (TAP) from S. pombe whole cell extracts; SDS-PAGE with Coomassie or silver staining; bands absent from the untagged control excised and identified by tandem mass spectrometry"}, "Tpr1-TAP (S. pombe) [2]": {"molecular_target": "T1, Tpr1-TAP (S. pombe)", "assay": "affinity purification with mass spectrometry; TAP from S. pombe whole cell extracts, modified (no glycerol or detergent in final wash and elution, EDTA in the elution buffer); eluate analysed in solution by mass spectrometry; untagged strain as control"}, "Paf1-TAP (S. pombe)": {"molecular_target": "Paf1-TAP (S. pombe)", "assay": "affinity purification with mass spectrometry; tandem affinity purification (TAP) from S. pombe whole cell extracts; SDS-PAGE with Coomassie or silver staining; bands absent from the untagged control excised and identified by tandem mass spectrometry"}, "Prf1-TAP (S. pombe) [3]": {"molecular_target": "Prf1-TAP (S. pombe)", "assay": "affinity purification with mass spectrometry; tandem affinity purification (TAP) from S. pombe whole cell extracts; SDS-PAGE with Coomassie or silver staining; bands absent from the untagged control excised and identified by tandem mass spectrometry"}, "Prf1-TAP (S. pombe) [4]": {"molecular_target": "Prf1-TAP (S. pombe)", "assay": "affinity purification with mass spectrometry; TAP from S. pombe whole cell extracts, modified (no glycerol or detergent in final wash and elution, EDTA in the elution buffer); eluate analysed in solution by mass spectrometry; untagged strain as control"}},
  "note": "No constants are given. Whether binding was seen depends on the method and setting. Binding seen in cells or lysates may run through a third protein. Here binding means that the protein was enriched with, or labelled near, the bait; the list need not be complete. For some of these results: A no says only that the protein was not detected with the bait.",
  "data": [
    {"molecule": "Leo1 (from UniProt Q9P6R2)", "values": [
      {"measurement": "binding", "setting": "Tpr1-TAP (S. pombe) [1]", "value": "binds"},
      {"measurement": "binding", "setting": "Tpr1-TAP (S. pombe) [2]", "value": "binds"}
    ]},
    {"molecule": "Prf1 (S. pombe)", "values": [
      {"measurement": "binding", "setting": "Tpr1-TAP (S. pombe) [1]", "value": "no binding"},
      {"measurement": "binding", "setting": "Tpr1-TAP (S. pombe) [2]", "value": "no binding"}
    ]},
    {"molecule": "Paf1 (S. pombe)", "values": [
      {"measurement": "binding", "setting": "Tpr1-TAP (S. pombe) [1]", "value": "binds"},
      {"measurement": "binding", "setting": "Tpr1-TAP (S. pombe) [2]", "value": "binds"}
    ]},
    {"molecule": "B1", "values": [
      {"measurement": "binding", "setting": "Paf1-TAP (S. pombe)", "value": "binds"},
      {"measurement": "binding", "setting": "Prf1-TAP (S. pombe) [3]", "value": "no binding"},
      {"measurement": "binding", "setting": "Prf1-TAP (S. pombe) [4]", "value": "no binding"}
    ]},
    {"molecule": "B2", "values": [
      {"measurement": "binding", "setting": "Prf1-TAP (S. pombe) [3]", "value": "no binding"},
      {"measurement": "binding", "setting": "Tpr1-TAP (S. pombe) [1]", "value": "binds"},
      {"measurement": "binding", "setting": "Prf1-TAP (S. pombe) [4]", "value": "no binding"},
      {"measurement": "binding", "setting": "Tpr1-TAP (S. pombe) [2]", "value": "binds"}
    ]}
  ]
}
